{"sequences": {"note": "Protein sequences, listed by entry. Tags and fused reporters are not part of them.", "UniProt P49715, whole entry": "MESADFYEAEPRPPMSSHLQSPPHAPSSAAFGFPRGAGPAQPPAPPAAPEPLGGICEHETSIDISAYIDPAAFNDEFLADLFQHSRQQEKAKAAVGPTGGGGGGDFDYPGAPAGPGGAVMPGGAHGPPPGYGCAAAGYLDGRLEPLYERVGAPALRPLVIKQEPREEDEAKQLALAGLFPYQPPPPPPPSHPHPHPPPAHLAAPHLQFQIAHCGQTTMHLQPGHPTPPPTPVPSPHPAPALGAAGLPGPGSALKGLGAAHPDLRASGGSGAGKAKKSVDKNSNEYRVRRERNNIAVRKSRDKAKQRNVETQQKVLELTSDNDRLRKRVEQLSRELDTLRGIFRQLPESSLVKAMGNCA"}, "source": "paper PMC4814574", "key": {"C/EBPα WT-ER (human)": {"molecular_target": "C/EBPα WT-ER (human) (UniProt P49715)", "experiment": "EMSA supershift", "conditions": "K562 cells treated with 5 uM β-estradiol 45 min; 10 mM HEPES-KOH pH 7.9, 50 mM KCl, 2.5 mM MgCl2, 1 mM DTT, 10% glycerol, 1 ug BSA, 0.5 ug poly(dI-dC), 25 ul, on ice 20 min; 6% gel, 0.5x TBE, 4 °C; protein in an extract; residues 1-358; protein details: C-terminal ER ligand-binding domain fusion"}, "[1]": {"molecular_target": "C/EBPα WT (no ER tag) (human) (UniProt P49715)", "experiment": "EMSA supershift", "conditions": "0.1 and 0.5 ug nuclear extract; 10 mM HEPES-KOH pH 7.9, 50 mM KCl, 2.5 mM MgCl2, 1 mM DTT, 10% glycerol, 1 ug BSA, 0.5 ug poly(dI-dC), 25 ul, on ice 20 min; 6% gel, 0.5x TBE, 4 °C; protein in an extract; residues 1-358"}}, "note": "Construct, isoform or probe ends are uncertain for at least one entry. Where cells or extracts were used, other partners may take part."}
{"sequence": "CTAGGGCTTGCGCAATCTATATTCG / CGAATATAGATTGCGCAAGCCCTA [G-CSF receptor promoter C/EBP site oligonucleotide]", "values": [{"measurement": "binding result", "setting": "C/EBPα WT-ER (human)", "result": "binds"}, {"measurement": "binding result", "setting": "[1]", "result": "binds"}]}
